{"source": "patent US20050266088A1", "about": "“Formulation for fast dissolution of lipophilic compounds” (Rijksuniversiteit Groningen, priority 2002, published 2005)", "test": "Dissolution experiments on tablets (Prolabo dissolution apparatus)", "assay_type": "physicochemical", "procedure": "After compaction the tablets were weighed and subsequently submitted to dissolution experiments.\nDissolution was performed on a Prolabo dissolution apparatus, Rowa Techniek B.V. All experiments were conducted at 37° C. in 1000 mL under constant stirring with 100 rpm. Tablets prepared from physical mixtures and solid dispersions were analysed in triplicate.\nTo determine the sugar concentrations the Anthrone assay was used. (Scott et al. 1953) Samples were taken at appropriate intervals during the dissolution. […] Due to the enthalpy of mixing, the sample was heated to its boiling point. The boiling mixture was then cooled to room temperature. After 45 minutes the sample was vortexed and […] of sample was analysed in the plate reader at 630 nm. […] In every Anthrone assay a calibration curve of the appropriate sugar in the appropriate medium was established.", "data": [{"smiles": "CN1C(=O)CN=C(c2ccccc2)c2cc(Cl)ccc21", "note": "[diazepam, Diazepam]", "values": [{"measurement": "dissolution of drug from physical mixture tablets", "result": "dissolved slower"}]}]}
